Laboratory results as given in article PMC13503143.
Results are given in words; binding and its absence hold for the method and conditions named. In cells and extracts the contact can be indirect. Some entries that bind do so weakly or less than the wild type.

Chains of the proteins cited; added tags and fusions are not shown. Lines headed by an entry give the natural chain unless they say otherwise; changes in a name come on top. A line that says so, or that is headed by a name, gives the form on record, which may keep a tag or linker.
V5-DNAJB6b WT (O75190, form named): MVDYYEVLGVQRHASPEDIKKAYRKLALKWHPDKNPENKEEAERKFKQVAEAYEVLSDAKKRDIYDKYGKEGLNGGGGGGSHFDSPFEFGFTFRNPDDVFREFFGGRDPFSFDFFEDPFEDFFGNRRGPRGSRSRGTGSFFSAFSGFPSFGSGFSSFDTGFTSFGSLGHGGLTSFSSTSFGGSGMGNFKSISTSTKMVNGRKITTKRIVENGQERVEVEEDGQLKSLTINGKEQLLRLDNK
V5-DNAJB6b Y53E (O75190, form named): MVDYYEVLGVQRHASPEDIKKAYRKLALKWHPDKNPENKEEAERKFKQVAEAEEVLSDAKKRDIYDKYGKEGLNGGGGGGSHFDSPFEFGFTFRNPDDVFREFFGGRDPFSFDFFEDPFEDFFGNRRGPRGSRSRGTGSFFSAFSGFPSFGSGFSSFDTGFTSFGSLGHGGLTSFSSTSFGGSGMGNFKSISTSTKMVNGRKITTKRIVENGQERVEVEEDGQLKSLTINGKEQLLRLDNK
V5-DNAJB6b Y53F (O75190, form named): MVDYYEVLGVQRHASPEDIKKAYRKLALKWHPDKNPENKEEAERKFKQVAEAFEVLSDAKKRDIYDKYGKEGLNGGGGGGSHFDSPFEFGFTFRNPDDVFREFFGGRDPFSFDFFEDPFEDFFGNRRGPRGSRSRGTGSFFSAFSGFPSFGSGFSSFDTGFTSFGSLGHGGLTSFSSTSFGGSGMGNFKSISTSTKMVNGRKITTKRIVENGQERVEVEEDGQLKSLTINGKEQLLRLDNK
UniProt P11142: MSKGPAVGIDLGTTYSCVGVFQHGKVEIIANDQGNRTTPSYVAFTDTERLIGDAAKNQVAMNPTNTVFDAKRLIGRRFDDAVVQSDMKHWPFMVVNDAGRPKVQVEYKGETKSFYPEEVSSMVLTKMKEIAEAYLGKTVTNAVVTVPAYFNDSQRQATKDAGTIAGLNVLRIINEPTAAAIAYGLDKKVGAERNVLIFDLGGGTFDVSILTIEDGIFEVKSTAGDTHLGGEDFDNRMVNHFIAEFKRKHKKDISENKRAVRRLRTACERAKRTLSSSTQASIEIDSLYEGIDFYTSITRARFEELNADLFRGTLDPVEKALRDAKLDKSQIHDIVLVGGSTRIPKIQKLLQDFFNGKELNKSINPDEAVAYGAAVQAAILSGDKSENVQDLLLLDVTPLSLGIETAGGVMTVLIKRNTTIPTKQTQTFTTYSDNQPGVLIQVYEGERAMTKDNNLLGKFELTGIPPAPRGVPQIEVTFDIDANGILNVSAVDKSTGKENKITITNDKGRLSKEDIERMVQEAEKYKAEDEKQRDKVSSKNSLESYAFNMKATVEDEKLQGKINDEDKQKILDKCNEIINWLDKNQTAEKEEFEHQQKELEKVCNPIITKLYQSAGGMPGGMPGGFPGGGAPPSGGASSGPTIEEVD
UniProt P0DMV8: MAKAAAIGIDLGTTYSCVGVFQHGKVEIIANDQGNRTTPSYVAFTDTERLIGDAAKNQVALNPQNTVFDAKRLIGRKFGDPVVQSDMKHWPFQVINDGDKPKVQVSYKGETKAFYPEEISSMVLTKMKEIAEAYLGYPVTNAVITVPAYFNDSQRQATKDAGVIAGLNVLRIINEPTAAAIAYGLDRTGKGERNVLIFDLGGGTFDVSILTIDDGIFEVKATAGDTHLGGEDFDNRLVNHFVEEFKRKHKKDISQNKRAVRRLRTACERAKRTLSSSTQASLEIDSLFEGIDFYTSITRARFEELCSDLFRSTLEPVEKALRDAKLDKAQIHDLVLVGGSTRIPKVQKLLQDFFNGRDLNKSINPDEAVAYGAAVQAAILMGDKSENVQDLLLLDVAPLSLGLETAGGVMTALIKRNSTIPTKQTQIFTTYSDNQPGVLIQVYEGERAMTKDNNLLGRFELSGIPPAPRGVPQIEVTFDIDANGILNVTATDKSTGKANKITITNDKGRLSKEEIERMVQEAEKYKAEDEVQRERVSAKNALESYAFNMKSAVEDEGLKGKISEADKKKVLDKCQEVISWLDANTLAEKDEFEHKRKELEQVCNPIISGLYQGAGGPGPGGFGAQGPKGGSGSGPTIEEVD

Experiments:
[1] = molecular target: endogenous DNAJB6b (human (endogenous in SH-SY5Y)) (UniProt O75190); assay: co-IP; SH-SY5Y cells co-expressing EGFP-tau P301L and Flag-HSPA8 WT or E218A/K220A for 48 h; lysate in 50 mM Tris-HCl pH 7.5, 150 mM NaCl, 0.5% Triton X-100, 1 mM EDTA; anti-DNAJB6 antibody to precipitate endogenous DNAJB6b, Protein G magnetic beads, 4 °C
V5-DNAJB6b WT (human) [2] = molecular target: V5-DNAJB6b WT (human) (UniProt O75190); assay: co-IP; SH-SY5Y cells co-expressing EGFP-tau P301L and V5-DNAJB6b constructs for 48 h; lysate in 50 mM Tris-HCl pH 7.5, 150 mM NaCl, 0.5% Triton X-100, 1 mM EDTA; anti-V5 antibody, Protein G magnetic beads, 4 °C; blots for HSPA8 and HSPA1A
V5-DNAJB6b Y53E (human) [3] = molecular target: V5-DNAJB6b Y53E (human) (UniProt O75190); assay: as above
V5-DNAJB6b Y53F (human) [4] = molecular target: V5-DNAJB6b Y53F (human) (UniProt O75190); assay: as above
V5-DNAJB6b WT (human) [5] = molecular target: V5-DNAJB6b WT (human) (UniProt O75190); assay: proximity ligation; Duolink In Situ Red, anti-V5 and anti-HSPA8 antibodies, fixed SH-SY5Y cells 48 h after transfection of V5-DNAJB6b constructs; PLA+ cells of DAPI+ cells
V5-DNAJB6b Y53E (human) [6] = molecular target: V5-DNAJB6b Y53E (human) (UniProt O75190); assay: as above
V5-DNAJB6b Y53F (human) [7] = molecular target: V5-DNAJB6b Y53F (human) (UniProt O75190); assay: as above

binding [1] | binding (V5-DNAJB6b WT (human) [2]) | binding (V5-DNAJB6b Y53E (human) [3]) | binding (V5-DNAJB6b Y53F (human) [4]) | binding (V5-DNAJB6b WT (human) [5]) | binding (V5-DNAJB6b Y53E (human) [6]) | binding (V5-DNAJB6b Y53F (human) [7]) | Substance
binds | – | – | – | – | – | – | Flag-HSPA8 E218A/K220A (from UniProt P11142 1-646)
binds | – | – | – | – | – | – | Flag-HSPA8 WT (from UniProt P11142 1-646)
– | binds | binds | binds | – | – | – | HSPA1A (from UniProt P0DMV8 1-641)
– | binds | binds | binds | binds | binds | binds weakly | HSPA8 (from UniProt P11142 1-646)
